Tested on: Trichoplusia ni (cabbage looper) larvae
Assay: In-vitro insecticidal efficacy (mortality and bioactivity, treated artificial diet, Abbott and Colby formulas) against Trichoplusia ni
Assay type: in vivo
Conditions: Table 69B, Coragen 0.2525 ppm (0.04646 ppm chlorantraniliprole), aliphatic acid (salt) 500 ppm, alone or combined
Experimental: An artificial diet suitable for Trichoplusia ni (cabbage looper caterpillar) was prepared from a commercially available general purpose lepidoptera artificial diet premix (such as General Purpose Lepidoptera Diet available from Frontier Scientific Services, Newark, DE) and mixed in a heated liquid agar media (0.022 g agar per ml of water). The liquid artificial diet and agar media was then used to fill each well of a transparent 96-well treatment plate with 200 μL of the artificial diet and agar media, which was allowed to solidify at room temperature and stored at approximately 4 C.
A 20 μL treatment sample of each treatment formulation was then placed on top of the solidified artificial diet media in a well of a 96 well plate and allowed to dry overnight.
The following day, one neonate Trichoplusia ni (cabbage looper) larva (hatched from eggs obtained from the Benzon Research, Inc. of Carlisle, PA, USA) was added to each well of the plate, after which the wells were sealed with a perforated transparent film, allowing air and moisture exchange. The plates were kept in a suitable regulated indoor incubation environment and the larvae were allowed to feed on the treatment overlaid diet/agar media for 5 days. […] Each experiment contained 8 replicates (larvae cells) for each treatment.
While for SF<1, antagonism is present and for SF=1, the efficacy of the compounds is merely additive. […]

CC(C)CC(=O)O [3-methylbutyric acid]
Survival Rate (100-(mortality + stunting)): 91.67%
